{"source": "PubChem BioAssay AID328", "about": "(DTP/NCI, 2004)", "system": "BDF1 mice, P388 leukemia ip, median survival T/C", "assay": "NCI In Vivo Anticancer Drug Screen. Data for tumor model P388 Leukemia (intraperitoneal) in B6D2F1 (BDF1) mice", "details": "T/C endpoint: median survival time, higher T/C = longer survival", "in_short": "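Antitumour effect was judged in vivo: survival in drug-treated mice, normalised to that of vehicle-dosed controls, gives the reported T/C.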", "key": {"[1]": {"details": "dose: 400.0 mg/kg/injection, schedule: Q04DX003 (ip), vehicle: saline with Tween-80"}, "[2]": {"details": "dose: 200.0 mg/kg/injection, schedule: Q01DX009 (ip), vehicle: saline with Tween-80"}, "[3]": {"details": "dose: 50.0 mg/kg/injection, schedule: Q01DX009 (ip), vehicle: saline with Tween-80"}, "[4]": {"details": "dose: 6.25 mg/kg/injection, schedule: Q01DX009 (ip), vehicle: saline with Tween-80"}}, "note": "The list is a part of this screen's results and no random one: it gathers tests that were run many times, whatever their T/C, doses with no T/C, and many T/C values between a quarter and a half above the control. Further doses and runs are listed elsewhere. T/C gives the treated animals as a percentage of the vehicle group. Some doses have a count of surviving animals in place of a T/C: the source files T/C as zero there, which appears to mark a toxic dose or a test without result, not a measured value. Some survivor counts are full or nearly so, which does not show that the dose was tolerated: the source hardly ever lists a survival T/C far under the control, and the zero likely stands for such cases as well. Counts of survivors are from the toxicity check (mostly the fifth day) where no day follows; animals may have died later. Schedule codes are those of the source, read here as Q, the interval in days (D) or hours (H), X, the number of doses. Some schedules carry Z or #; the key to these is not given. For survival time, the PubChem record calls one and a half times the control and up active, and a quarter to a half above the control has no call in these data; cut-offs in other NCI protocols can differ. Some doses were run more than once; the results are listed from low to high. Some T/C values carry the count of animals alive at the toxicity check (mostly the fifth day); without a count, all were alive then."}
{"smiles": "CCCCc1c2c(nn1C(C)=O)C(=O)C=C(Nc1ccccc1)C2=O", "values": [{"measurement": "survivor count", "setting": "[1]", "value": "5 of 6"}]}
{"smiles": "N#Cc1cnc2n(c1=N)CCCCC2", "values": [{"measurement": "survivor count", "setting": "dose: 200.0 mg/kg/injection, schedule: Q04DX003 (ip), vehicle: Klucel (hydroxypropylcellulose) (HPC)", "value": "5 of 6"}, {"measurement": "survivor count", "setting": "dose: 400.0 mg/kg/injection, schedule: Q04DX003 (ip), vehicle: Klucel (hydroxypropylcellulose) (HPC)", "value": "0 of 6"}]}
{"smiles": "C=CCC(CC)(C(=O)O)C(=O)O", "values": [{"measurement": "survivor count", "setting": "dose: 200.0 mg/kg/injection, schedule: Q01DX009 (ip), vehicle: saline", "value": "3 of 6"}]}
{"smiles": "Cc1cc(NC(=O)Nc2cccc(C3=NCCN3)c2)ccc1NC(=O)Nc1cccc(C2=NCCN2)c1", "values": [{"measurement": "T/C", "setting": "[2]", "value": "136 % of control"}]}
{"smiles": "CN(C)N=Nc1ccccc1Cl", "values": [{"measurement": "T/C", "setting": "[3]", "value": "126 % of control"}, {"measurement": "survivor count", "setting": "[2]", "value": "0 of 6"}]}
{"smiles": "CC1(C)N=C(N)N=C(N)N1c1ccc(CCC(=O)Nc2ccc(S(=O)(=O)F)cc2)cc1", "values": [{"measurement": "T/C", "setting": "dose: 3.0 mg/kg/injection, schedule: Q01DX009 (ip), vehicle: saline with Tween-80", "value": "125 % of control"}, {"measurement": "T/C", "setting": "[4]", "value": "131 % of control"}, {"measurement": "T/C", "setting": "dose: 100.0 mg/kg/injection, schedule: Q04DX003 (ip), vehicle: saline sonified", "value": "125 % of control"}, {"measurement": "T/C", "setting": "dose: 200.0 mg/kg/injection, schedule: Q04DX003 (ip), vehicle: saline sonified", "value": "137 % of control"}, {"measurement": "T/C", "setting": "dose: 400.0 mg/kg/injection, schedule: Q04DX003 (ip), vehicle: saline sonified", "value": "137 % of control"}]}
{"smiles": "O=C(C1CC2CCC1C2)C1CC2CCC1C2", "note": "(stereo not drawn)", "values": [{"measurement": "T/C", "setting": "dose: 200.0 mg/kg/injection, schedule: Q01DX009 (ip), vehicle: other", "value": "128 % of control"}, {"measurement": "survivor count", "setting": "dose: 400.0 mg/kg/injection, schedule: Q01DX009 (ip), vehicle: other", "value": "6 of 6"}]}
{"smiles": "CCC(c1ccc2cc(OC)ccc2c1)C(C)(C)C(=O)F", "note": "(stereo not drawn)", "values": [{"measurement": "T/C", "setting": "dose: 25.0 mg/kg/injection, schedule: Q01DX009 (ip), vehicle: Klucel (hydroxypropylcellulose) (HPC)", "value": "144 % of control"}, {"measurement": "T/C", "setting": "dose: 33.0 mg/kg/injection, schedule: Q01DX009 (ip), vehicle: Klucel (hydroxypropylcellulose) (HPC)", "value": "126 % of control [5 of 6 alive]"}, {"measurement": "T/C", "setting": "dose: 50.0 mg/kg/injection, schedule: Q01DX009 (ip), vehicle: Klucel (hydroxypropylcellulose) (HPC)", "value": "126 % of control [4 of 6 alive]"}]}
{"smiles": "NC(=NCc1ccccc1)c1ccc(N=C(N)c2ccc(C(N)=Nc3ccc(C(N)=NCc4ccccc4)cc3)cc2)cc1", "values": [{"measurement": "T/C", "setting": "dose: 6.6 mg/kg/injection, schedule: Q01DX009 (ip), vehicle: saline", "value": "125 % of control"}, {"measurement": "T/C", "setting": "dose: 10.0 mg/kg/injection, schedule: Q01DX009 (ip), vehicle: saline", "value": "133 % of control"}, {"measurement": "T/C", "setting": "dose: 15.0 mg/kg/injection, schedule: Q01DX009 (ip), vehicle: saline", "value": "141 % of control"}]}
{"smiles": "CCCCCCCCCCCCOP(N)(=O)OCCCCCCCCCCCC", "values": [{"measurement": "survivor count", "setting": "dose: 100.0 mg/kg/injection, schedule: Q01DX009 (ip), vehicle: Klucel (hydroxypropylcellulose) (HPC)", "value": "5 of 6"}, {"measurement": "survivor count", "setting": "dose: 200.0 mg/kg/injection, schedule: Q01DX009 (ip), vehicle: Klucel (hydroxypropylcellulose) (HPC)", "value": "4 of 6"}, {"measurement": "survivor count", "setting": "[2]", "value": "5 of 6"}, {"measurement": "survivor count", "setting": "dose: 400.0 mg/kg/injection, schedule: Q01DX009 (ip), vehicle: Klucel (hydroxypropylcellulose) (HPC)", "value": "0 of 6"}, {"measurement": "survivor count", "setting": "[1]", "value": "2 of 6"}]}
{"smiles": "Cc1cc(=O)c2c(C)cccc2[nH]1", "values": [{"measurement": "T/C", "setting": "[4]", "value": "136 % of control"}, {"measurement": "T/C", "setting": "dose: 12.5 mg/kg/injection, schedule: Q01DX009 (ip), vehicle: saline with Tween-80", "value": "136 % of control"}]}
{"smiles": "CC(C)=CCC1=C(O)c2ccccc2C(=O)C1=O", "values": [{"measurement": "T/C", "setting": "dose: 100.0 mg/kg/injection, schedule: Q01DX010 (ip), vehicle: water", "value": "100, 109, 113, 118 % of control"}, {"measurement": "survivor count", "setting": "dose: 125.0 mg/kg/injection, schedule: Q#A X020 (oral), vehicle: other", "value": "6 of 6"}, {"measurement": "survivor count", "setting": "dose: 200.0 mg/kg/injection, schedule: Q01DX010 (ip), vehicle: water", "value": "3 of 6"}, {"measurement": "survivor count", "setting": "dose: 200.0 mg/kg/injection, schedule: Q#A X018 (ip), vehicle: other", "value": "1 of 6"}, {"measurement": "T/C", "setting": "dose: 200.0 mg/kg/injection, schedule: Q#A X020 (ip), vehicle: other", "value": "140 % of control"}, {"measurement": "survivor count", "setting": "dose: 250.0 mg/kg/injection, schedule: Q#A X018 (ip), vehicle: other", "value": "0 of 6"}, {"measurement": "survivor count", "setting": "dose: 250.0 mg/kg/injection, schedule: Q#A X020 (oral), vehicle: other", "value": "5 of 6"}, {"measurement": "survivor count", "setting": "dose: 300.0 mg/kg/injection, schedule: Q#A X018 (ip), vehicle: other", "value": "0 of 6"}, {"measurement": "survivor count", "setting": "dose: 375.0 mg/kg/injection, schedule: Q#A X020 (oral), vehicle: other", "value": "3 of 6"}, {"measurement": "survivor count", "setting": "dose: 500.0 mg/kg/injection, schedule: Q#A X020 (oral), vehicle: other", "value": "4 of 6"}, {"measurement": "survivor count", "setting": "dose: 750.0 mg/kg/injection, schedule: Q#A X020 (oral), vehicle: other", "value": "1 of 6"}]}
{"smiles": "COc1cc(NS(C)(=O)=O)ccc1Nc1c2ccc(Cl)cc2nc2c(OC)cccc12", "values": [{"measurement": "T/C", "setting": "dose: 6.5 mg/kg/injection, schedule: Q01DX005 (iv), vehicle: water", "value": "138 % of control [9 of 10 alive]"}, {"measurement": "survivor count", "setting": "dose: 13.0 mg/kg/injection, schedule: Q01DX005 (iv), vehicle: water", "value": "8 of 10"}, {"measurement": "T/C", "setting": "dose: 13.0 mg/kg/injection, schedule: Q04DX003 (iv), vehicle: water", "value": "135 % of control"}, {"measurement": "survivor count", "setting": "dose: 25.0 mg/kg/injection, schedule: Q01DX009 (ip), vehicle: saline with Tween-80", "value": "6 of 6"}, {"measurement": "survivor count", "setting": "dose: 26.0 mg/kg/injection, schedule: Q01DX005 (iv), vehicle: water", "value": "3 of 10"}, {"measurement": "survivor count", "setting": "[3]", "value": "5 of 6"}]}
{"smiles": "O=c1cc(-c2cccs2)ss1", "values": [{"measurement": "survivor count", "setting": "[2]", "value": "6 of 6"}, {"measurement": "survivor count", "setting": "dose: 300.0 mg/kg/injection, schedule: Q01DX009 (ip), vehicle: saline with Tween-80", "value": "6 of 6"}, {"measurement": "survivor count", "setting": "dose: 400.0 mg/kg/injection, schedule: Q01DX009 (ip), vehicle: saline with Tween-80", "value": "2 of 6"}, {"measurement": "survivor count", "setting": "[1]", "value": "3 of 6"}]}
{"smiles": "O=[N+]([O-])c1ccc(N2CCN(c3ccccc3)CC2)c2c1no[n+]2[O-]", "values": [{"measurement": "T/C", "setting": "dose: 300.0 mg/kg/injection, schedule: Q04DX003 (ip), vehicle: saline with Tween-80", "value": "126 % of control"}]}
{"smiles": "C1=NOC2c3ccc4ccccc4c3CCC12", "note": "(stereo not drawn)", "values": [{"measurement": "survivor count", "setting": "dose: 100.0 mg/kg/injection, schedule: Q04DX003 (ip), vehicle: Klucel (hydroxypropylcellulose) (HPC)", "value": "6 of 6"}]}
{"smiles": "O=C1c2ccccc2C(=O)N1c1cc(O)cc(O)c1", "values": [{"measurement": "survivor count", "setting": "dose: 2.0 mg/kg/injection, schedule: Q01DX009 (ip), vehicle: water", "value": "6 of 6"}, {"measurement": "survivor count", "setting": "dose: 8.0 mg/kg/injection, schedule: Q01DX009 (ip), vehicle: water", "value": "5 of 6"}, {"measurement": "T/C", "setting": "dose: 16.0 mg/kg/injection, schedule: Q01DX009 (ip), vehicle: water", "value": "129 % of control"}]}
